Test results from PubChem BioAssay AID2685 (National Center for Advancing Translational Sciences (NCATS), 2010).
Some of the results follow. Shown are side measurements of this screen, not its main read-out; they come without a call. Most of these compounds were active or inconclusive in the main read-out, so they are no random draw. Words in brackets tell the shape of the fitted curve; partial curves, single points and poor fits give uncertain potencies.

Assay: qHTS Assay for Lipid Storage Modulators in Drosophila S3 Cells;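 as to cell number change: cells counted by Cell Tracker Red CMTPX staining in the red channel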
Conditions: BODIPY lipid droplet fluorescence, 18-24 h; for cell number change: measured here: cell count max response, cells fed with added oleic acid
How it was run: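 Drosophila S3 cells loaded with oleic acid (400 uM, as added) and compounds at several concentrations; lipid droplets imaged by 488-nm laser-scanning cytometry, 500–530 nm intensity and object ratio to cell channel. Percent activity normalized to 20 uM Triacsin C.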

[1] = measured here: cell number channel AC50, cells fed with added oleic acid
[2] = measured here: lipid fluorescence (Fed channel) AC50, cells fed with added oleic acid

## O=[N+]([O-])c1cc(S(=O)(=O)C(F)(F)F)ccc1Sc1nc2ccccc2s1
  cell number change: -88.7%
[1]
  AC50: 29.1 µM [falling, single point]
[2]
  AC50: 29.1 µM [falling, single point]

## CS(=O)(=O)Nc1ccc2c(c1)C(=O)OC2
  cell number change: -9.39%
[2]
  AC50: 29.1 µM [falling, single point]

## CN1CCCCCC1=Nc1ccccc1C#N
  cell number change: 5.91%
[2]
  AC50: 6.51 µM [falling, single point]

## O=C1C(C2=C(O)c3ccccc3C2=O)=Nc2ccccc21
  cell number change: -0.276%
[2]
  AC50: 2.91 µM [falling, single point]

## O=[N+]([O-])c1ccc(C2Nc3cccc4cccc(c34)N2)cc1
  cell number change: -28.1%
[2]
  AC50: 29.1 µM [falling, single point]

## CC(C)N(C(=O)COC(=O)c1ccccc1C(=O)c1ccc(Cl)c([N+](=O)[O-])c1)C(C)C
  cell number change: -42.1%
[1]
  AC50: 0.58 µM [falling, full curve]
[2]
  AC50: 1.3 µM [falling, full curve]

## COc1ccc(Br)c(C(=O)Nc2nc3ccccc3[nH]2)c1
  cell number change: 38.2%
[1]
  AC50: 13 µM [rising, partial curve, poor fit]

## CSc1nccc(Oc2cccc(C#N)c2)n1
  cell number change: -57.4%
[1]
  AC50: 23.1 µM [falling, single point]
[2]
  AC50: 18.4 µM [falling, single point]

## C[C@@]12CC(=O)NC1N(C(=O)c1cccc(C(F)(F)F)c1)C(c1ccccc1OC(=O)c1cccc(C(F)(F)F)c1)C2 (stereo partly specified)
  cell number change: -112%
[1]
  AC50: 2.31 µM [rising, partial curve]
[2]
  AC50: 6.51 µM [rising, single point]

## O=C(CCN1C(=O)[C@@H]2Cc3ccccc3CN2C1=O)NCc1ccc(Cl)cc1
[2]
  AC50: 2.31 µM [rising, single point]

## CCOc1ccc(N2C(=O)CC(SCC(=O)O)C2=O)cc1 (stereo unspecified)
  cell number change: -16.7%
[2]
  AC50: 16.4 µM [falling, single point]

## CSc1nnc(C(C)(C)C)c(=O)n1/N=C/c1ccc(Cl)cc1
  cell number change: 2.67%
[1]
  AC50: 0.184 µM [rising, full curve, poor fit]
[2]
  AC50: 6.51 µM [rising, partial curve, poor fit]

## COc1ccc(-c2nc(NC(=O)c3ccc(OCC(=O)Nc4ccc(F)cc4)c(OC)c3)sc2C)cc1
  cell number change: -47.5%
[1]
  AC50: 29.1 µM [falling, single point]
[2]
  AC50: 29.1 µM [falling, single point]

## COc1ccccc1NC(=O)N1CCC(C(=O)c2ccc(F)cc2)CC1
  cell number change: 13.8%
[2]
  AC50: 0.291 µM [rising, partial curve, poor fit]

## CCN(CC)c1ccc(C(=O)OCC(=O)Nc2cccc(S(=O)(=O)NC3=NCCCCC3)c2)cc1
  cell number change: 36.3%
[1]
  AC50: 4.11 µM [rising, full curve]

## CN(c1ccccc1)c1ccc(/C=c2\s/c(=C(/C#N)C(=O)C(C)(C)C)n(Cc3ccco3)c2=O)cc1
  cell number change: -99.4%
[1]
  AC50: 29.1 µM [falling, partial curve, poor fit]

## O=Cc1c(N2CCN(CCO)CC2)nc2ccccn2c1=O
  cell number change: 36.5%

## Nc1nnc(SCC(=O)NC2CCCCCCC2)s1
  cell number change: 8.7%
[2]
  AC50: 14.6 µM [falling, partial curve, poor fit]

## Cc1cccc(N2CC(=O)N(c3cccc(C)c3)CC2=O)c1
  cell number change: 6.92%

## COc1cccc(NS(=O)(=O)c2ccc3c(c2)n(C)c(=O)c(=O)n3C)c1
[1]
  AC50: 1.3 µM [rising, full curve]
[2]
  AC50: 1.3 µM [rising, full curve]

## O=S(=O)(Nc1ccc(-n2cnnn2)cc1)c1ccc(F)c(F)c1F
  cell number change: -21.2%
[1]
  AC50: 2.06 µM [rising, partial curve]
[2]
  AC50: 3.66 µM [rising, partial curve]

## O=[N+]([O-])c1ccc(/C=N/Nc2nc3ccccc3o2)cc1
  cell number change: -16.9%
[1]
  AC50: 0.731 µM [rising, single point]
[2]
  AC50: 29.1 µM [falling, single point]

## CCOc1ccc(NC(=O)C(C)Oc2ccc(C#N)cc2)cc1S(=O)(=O)N1CCCC1 (stereo unspecified)
  cell number change: -22.2%
[2]
  AC50: 29.1 µM [falling, single point]

## COc1cccc(NC(=S)N(CCc2c(C)[nH]c3ccc(C)cc23)Cc2cccs2)c1
  cell number change: -24.3%
[1]
  AC50: 0.0206 µM [falling, full curve, poor fit]
[2]
  AC50: 0.00461 µM [falling, full curve, poor fit]

## C/C(=N/NC(=O)c1ccoc1C)c1cccc(NC(=O)C(F)(F)F)c1
  cell number change: 0.326%

## Cn1c(N2CCN(C(c3ccccc3)c3ccccc3)CC2)nc2ccccc21
  cell number change: 27.8%
[2]
  AC50: 9.2 µM [rising, partial curve]

## N#C/C(=C1/CCCCCN1)c1nc2ccccc2s1
  cell number change: -12.2%
[2]
  AC50: 6.51 µM [falling, single point]

## COc1ccc(N2CCN(CC(=O)Nc3cccc(S(=O)(=O)N4CCOCC4)c3)CC2)cc1
[2]
  AC50: 18.4 µM [falling, partial curve]

## Cc1ccc(OCC(=O)NC(=S)Nc2cccc(C)n2)cc1
  cell number change: -3.4%

## CCOC(=O)C1CCN(C(=O)c2ccc(OC3CCN(C(=O)COC)CC3)cc2)CC1
  cell number change: 4.42%
[2]
  AC50: 29.1 µM [rising, single point]

## Cc1cccc(C)c1NC(=O)CN(C)CC(=O)N(C)CC(=O)Nc1ccccc1Br
  cell number change: 4.37%
[1]
  AC50: 0.0058 µM [falling, full curve, poor fit]

## Cc1ccc(OCCN(C)C(=O)C2CCC(=O)N(Cc3ccccc3F)C2)cc1 (stereo unspecified)
  cell number change: 14.1%
[1]
  AC50: 7.31 µM [rising, single point]

## CSCCC(NC(=O)c1ccccc1)C(=O)N1CCCCCCC1 (stereo unspecified)
  cell number change: 9.91%
[2]
  AC50: 4.11 µM [rising, single point]

## COCCNc1ccc(-c2nn(C)c(=O)c3ccccc23)cc1[N+](=O)[O-]
  cell number change: 22.4%
[2]
  AC50: 3.26 µM [rising, partial curve, poor fit]

## O=C1C=C(Nc2ccccc2)C(=O)c2ccccc21
  cell number change: -49.9%
[1]
  AC50: 32.6 µM [falling, partial curve, poor fit]
[2]
  AC50: 25.9 µM [falling, partial curve, poor fit]

## CS(=O)(=O)N(CC(=O)N1CCCCCC1)Cc1ccc(Cl)cc1
  cell number change: 34.9%
[1]
  AC50: 29.1 µM [rising, single point]

## CCn1c(Cc2ccccc2)nnc1SCC(=O)Nc1ccccc1
  cell number change: 11.6%
[1]
  AC50: 6.51 µM [rising, single point]

## CN(C)C(CNc1ccc(C(F)(F)F)cn1)c1ccccc1 (stereo unspecified)
  cell number change: -7.56%

## CSc1cccc(NC(=O)c2ccc(NC3=NC4CS(=O)(=O)CC4S3)cc2)c1 (stereo unspecified)
  cell number change: 13.8%

## Cc1cccc(N2CCCn3c2nc2c3c(=O)n(CCN3CCOCC3)c(=O)n2C)c1
  cell number change: 6.45%

## COc1ccc(C2CC(=O)C3=C(C2)Nc2ccccc2N(C(=O)CCC(=O)O)C3c2ccc(F)cc2)cc1 (stereo unspecified)
  cell number change: -22.4%
[2]
  AC50: 1.3 µM [falling, full curve]

## Cc1cc(O)c(C(C)C)cc1C1(c2cc(C(C)C)c(O)cc2C)OC(=O)c2ccccc21
  cell number change: -36%
[1]
  AC50: 5.17 µM [falling, partial curve, poor fit]

## Cn1cc(-c2cccc(Cl)c2)cc(C#N)c1=O
  cell number change: -68.8%
[2]
  AC50: 0.00517 µM [falling, full curve, poor fit]

## Cn1c(CCNC(=O)c2ccccc2F)nnc1SCc1nc2ccccc2c(=O)[nH]1
  cell number change: 7.89%
[2]
  AC50: 9.2 µM [rising, partial curve]

## CC(C)CN1C(=O)N(c2ccc(Cl)cc2)C(C)(O)CC1(C)C (stereo unspecified)
  cell number change: -34.5%
[1]
  AC50: 20.6 µM [falling, single point]
[2]
  AC50: 25.9 µM [falling, single point]

## Cc1ccccc1-c1n[nH]c(=S)n1C
  cell number change: 8.02%
[2]
  AC50: 29.1 µM [rising, single point]

## C=CCNC(=O)c1ccc(-c2nc(-c3ccccc3)cs2)cc1
  cell number change: -57%
[1]
  AC50: 20.6 µM [falling, single point]
[2]
  AC50: 29.1 µM [falling, single point]

## COc1cccc(-c2coc3c(C)c4oc(=O)c(CCC(=O)O)c(C)c4cc23)c1
  cell number change: -10.7%
[2]
  AC50: 29.1 µM [falling, single point]

## O=C(Nc1ccccc1Br)C1CC(=O)N(c2ccc3c4c(cccc24)CC3)C1 (stereo unspecified)
  cell number change: 6.77%
[1]
  AC50: 4.11 µM [falling, single point]
[2]
  AC50: 6.51 µM [falling, single point]

## CC(CNc1ccccc1O)C(=O)O (stereo unspecified)
  cell number change: 55.4%
[1]
  AC50: 18.4 µM [rising, single point]

## Cc1ccc(SCCNC(=O)c2ccc([N+](=O)[O-])c(C)c2)cc1
  cell number change: -4.2%
[2]
  AC50: 29.1 µM [falling, single point]

## Nc1c(N(Cc2ccco2)C(=O)COc2ccccc2F)c(=O)[nH]c(=O)n1Cc1ccccc1
  cell number change: -21.8%
[1]
  AC50: 1.64 µM [falling, full curve, poor fit]
[2]
  AC50: 1.16 µM [falling, full curve]

## Cc1cccc(C(=O)NCc2nnc(SCC(=O)Nc3nnc(C)s3)n2C)c1
  cell number change: 32.9%
[1]
  AC50: 2.91 µM [rising, full curve, poor fit]
[2]
  AC50: 35.5 µM [falling, single point]

## Cc1occc1C(=O)NNC(=S)Nc1cccc([N+](=O)[O-])c1
  cell number change: -18.6%
[2]
  AC50: 3.66 µM [falling, partial curve, poor fit]

## COCCn1nnnc1C(c1cc2c(C)cc(C)cc2[nH]c1=O)N1CCCCCC1 (stereo unspecified)
  cell number change: 14.5%
[2]
  AC50: 0.13 µM [rising, full curve, poor fit]
